Laboratory results from PMC3103426.
These are yes or no findings as the source states them, for the method shown. Binding calls can cover weak binding; strength is not graded here.

Tests used:
Test in all cases: two-hybrid; GAL4 binding domain baits (pDEST32) in yeast PJ69-4α systematically mated with GAL4 activating domain preys (pDEST22) in PJ69-4a; growth scored on SC lacking Trp, Leu and His with 0, 1, 3 or 5 mM 3-amino-1,2,4-triazole, four days at 20°C; in duplicate; SEP4 bait excluded (auto-activation)
[1] = target: Actinidia SEP3 (Actinidia chinensis) (UniProt F4ZKM5)
[2] = target: Actinidia FUL (not stated (ESTs from A. chinensis and A. arguta)) (UniProt F4ZKM0)
[3] = target: Actinidia AG (not stated (EST from A. arguta; full-length cDNA isolated from A. chinensis)) (UniProt F4ZKM4)

Substance: Actinidia SEP4 (from UniProt F4ZKM7)
- binding [1]: binds weakly
- binding [2]: binds
- binding [3]: binds weakly
